Measured values as given in ChEMBL document CHEMBL5036362, “Salidroside Promotes Sensitization to Doxorubicin in Human Cancer Cells by Affecting the PI3K/Akt/HIF Signal Pathway and Inhibiting the Expression of Tumor-Resistance-Related Proteins” (J Nat Prod, 2022).
pIC50: −log10 of the molar value.

Test system: HeLa
Experiment: Antiproliferative activity against human HeLa cells assessed as inhibition of cell proliferation measured after 48 hrs by CCK-8 assay
Format: functional, cell-based

pIC50: 6.23
SMILES: COc1cccc2c1C(=O)c1c(O)c3c(c(O)c1C2=O)C[C@@](O)(C(=O)CO)C[C@@H]3O[C@H]1C[C@H](N)[C@H](O)[C@H](C)O1 [DOXORUBICIN]
